The assay has as its target GFP-CD2AP (U2OS, Figure 4C) (not stated (CD2AP and xCD2AP plasmids listed)) (UniProt Q9Y5K6). Description: co-IP.

Chains of the proteins cited; added tags and fusions are not shown.
UniProt Q9Y5K6: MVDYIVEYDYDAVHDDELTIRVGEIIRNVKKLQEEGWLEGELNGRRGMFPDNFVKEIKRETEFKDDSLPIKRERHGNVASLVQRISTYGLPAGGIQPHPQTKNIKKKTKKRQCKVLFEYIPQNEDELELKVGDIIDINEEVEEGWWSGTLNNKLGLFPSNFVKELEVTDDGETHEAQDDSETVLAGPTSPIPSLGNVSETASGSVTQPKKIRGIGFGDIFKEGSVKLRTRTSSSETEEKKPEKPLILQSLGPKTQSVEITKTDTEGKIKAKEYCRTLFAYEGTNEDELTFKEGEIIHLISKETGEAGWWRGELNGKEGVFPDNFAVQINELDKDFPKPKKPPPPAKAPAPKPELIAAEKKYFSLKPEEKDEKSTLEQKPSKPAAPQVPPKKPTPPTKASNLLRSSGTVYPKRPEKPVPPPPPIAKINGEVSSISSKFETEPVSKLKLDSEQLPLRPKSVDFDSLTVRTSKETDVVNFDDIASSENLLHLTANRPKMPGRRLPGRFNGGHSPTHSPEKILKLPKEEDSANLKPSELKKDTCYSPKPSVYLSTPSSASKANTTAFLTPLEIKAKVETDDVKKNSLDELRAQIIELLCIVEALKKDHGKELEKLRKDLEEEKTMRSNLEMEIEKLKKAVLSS

No constants are given. Whether binding was seen depends on the method and setting. In cells and extracts the contact can be indirect. Some entries that bind do so weakly or less than the wild type.

B1: PAWS1 (endogenous, U2OS) (protein, UniProt A6ND36-1 1-823)
chain: MAFSQVQCLDDNHVNWRSSESKPEFFYSEEQRLALEALVARGRDAFYEVLKRENIRDFLSELELKRILETIEVYDPGSEDPRGTGPSQGPEDNGVGDGEEASGADGVPIEAEPLPSLEYWPQKSDRSIPQLDLGWPDTIAYRGVTRASVYMQPPIDGQAHIKEVVRKMISQAQKVIAVVMDMFTDVDIFKDLLDAGFKRKVAVYIIVDESNVKYFLHMCERACMHLGHLKNLRVRSSGGTEFFTRSATKFKGALAQKFMFVDGDRAVCGSYSFTWSAARTDRNVISVLSGQVVEMFDRQFQELYLMSHSVSLKGIPMEKEPEPEPIVLPSVVPLVPAGTVAKKLVNPKYALVKAKSVDEIAKISSEKQEAKKPLGLKGPALAEHPGELPELLPPIHPGLLHLERANMFEYLPTWVEPDPEPGSDILGYINIIDPNIWNPQPSQMNRIKIRDTSQASAQHQLWKQSQDSRPRPEPCPPPEPSAPQDGVPAENGLPQGDPEPLPPVPKPRTVPVADVLARDSSDIGWVLELPKEEAPQNGTDHRLPRMAGPGHAPLQRQLSVTQDDPESLGVGLPNGLDGVEEEDDDDYVTLSDQDSHSGSSGRGPGPRRPSVASSVSEEYFEVREHSVPLRRRHSEQVANGPTPPPRRQLSAPHITRGTFVGPQGGSPWAQSRGREEADALKRMQAQRSTDKEAQGQQFHHHRVPASGTRDKDGFPGPPRYRSAADSVQSSTRNAGPAMAGPHHWQAKGGQVPRLLPDPGSPRLAQNARPMTDGRATEEHPSPFGIPYSKLSQSKHLKARTGGSQWASSDSKRRAQAPRDRKDP
With B1, the binding entry is given as “binds”.
